Results are given in words; binding and its absence hold for the method and conditions named. Binding seen in cells or lysates may run through a third protein.
Target: LSR-GFP (mouse lipolysis-stimulated lipoprotein receptor fused to GFP) (mouse) (UniProt Q99KG5)
Test: co-IP; lysates of EpH4 cells transfected with LSR-GFP (72 h) immunoprecipitated with anti-GFP or normal rabbit IgG antibody, immunoblot with anti-GFP or anti-Pyk2 antibody; carried out as described in ref. 15

Amino acid sequences for entries named in this document (tags omitted). A change or cut given only in a name is not applied to a line headed by its entry.
UniProt Q99KG5: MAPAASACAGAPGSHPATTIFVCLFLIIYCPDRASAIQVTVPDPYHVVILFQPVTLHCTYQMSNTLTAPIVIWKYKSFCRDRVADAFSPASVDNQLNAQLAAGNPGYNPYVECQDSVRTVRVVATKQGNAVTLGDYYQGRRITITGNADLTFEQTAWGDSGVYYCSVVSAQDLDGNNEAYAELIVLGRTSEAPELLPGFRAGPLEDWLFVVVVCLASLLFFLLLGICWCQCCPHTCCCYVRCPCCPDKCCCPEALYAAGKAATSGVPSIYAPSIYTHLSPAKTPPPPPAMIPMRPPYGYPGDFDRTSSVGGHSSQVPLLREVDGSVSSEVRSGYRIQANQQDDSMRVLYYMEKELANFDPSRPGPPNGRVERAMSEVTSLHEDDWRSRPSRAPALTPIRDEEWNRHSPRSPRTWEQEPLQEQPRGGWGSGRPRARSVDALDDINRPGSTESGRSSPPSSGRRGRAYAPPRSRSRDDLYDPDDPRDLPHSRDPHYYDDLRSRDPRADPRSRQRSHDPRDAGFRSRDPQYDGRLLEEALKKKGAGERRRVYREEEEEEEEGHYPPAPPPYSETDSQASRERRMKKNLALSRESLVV
UniProt Q9QVP9: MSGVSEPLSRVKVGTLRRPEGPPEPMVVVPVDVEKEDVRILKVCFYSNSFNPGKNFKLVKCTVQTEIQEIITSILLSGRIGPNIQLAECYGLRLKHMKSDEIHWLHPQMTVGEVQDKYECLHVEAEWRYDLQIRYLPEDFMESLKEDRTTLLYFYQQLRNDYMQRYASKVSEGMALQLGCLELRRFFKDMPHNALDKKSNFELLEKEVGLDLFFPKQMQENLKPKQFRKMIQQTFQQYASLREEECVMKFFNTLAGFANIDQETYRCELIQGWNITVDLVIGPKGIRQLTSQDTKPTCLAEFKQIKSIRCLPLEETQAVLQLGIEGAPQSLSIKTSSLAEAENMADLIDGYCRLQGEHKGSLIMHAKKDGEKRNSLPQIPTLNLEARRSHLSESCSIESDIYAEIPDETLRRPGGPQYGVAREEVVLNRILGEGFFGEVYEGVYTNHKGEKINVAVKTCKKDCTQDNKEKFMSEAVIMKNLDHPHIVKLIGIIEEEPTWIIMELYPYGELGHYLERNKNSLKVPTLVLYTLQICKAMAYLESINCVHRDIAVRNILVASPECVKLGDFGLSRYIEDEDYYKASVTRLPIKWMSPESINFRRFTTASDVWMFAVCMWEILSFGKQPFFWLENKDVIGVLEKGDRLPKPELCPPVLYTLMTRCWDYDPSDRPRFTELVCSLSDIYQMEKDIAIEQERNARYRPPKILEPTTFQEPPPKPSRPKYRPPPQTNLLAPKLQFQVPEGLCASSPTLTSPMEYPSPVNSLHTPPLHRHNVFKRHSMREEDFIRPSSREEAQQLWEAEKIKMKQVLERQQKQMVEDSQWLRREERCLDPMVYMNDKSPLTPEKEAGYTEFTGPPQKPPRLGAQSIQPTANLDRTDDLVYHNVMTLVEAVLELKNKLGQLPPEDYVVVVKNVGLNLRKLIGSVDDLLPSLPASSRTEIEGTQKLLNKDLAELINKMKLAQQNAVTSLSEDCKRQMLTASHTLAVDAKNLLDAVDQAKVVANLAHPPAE

- binding: no binding
Substance: Pyk2 (nonreceptor tyrosine kinase) (from UniProt Q9QVP9 1-1009) (enzyme)
